Test results published in doi:10.1101/2021.10.14.464392.
Where two headings read alike, the source gives them in different places. No constants are given. Whether binding was seen depends on the method and setting. In cells and extracts the contact can be indirect. Some binding calls cover weakened binding; strength is not graded here. For some assays here: Sequences can lack the tags named with a protein.

Amino acid sequences for entries named in this document (tags omitted). A change or cut given only in a name is not applied to a line headed by its entry. Residues count along the entry.
UniProt Q4VCS5, 410-1084: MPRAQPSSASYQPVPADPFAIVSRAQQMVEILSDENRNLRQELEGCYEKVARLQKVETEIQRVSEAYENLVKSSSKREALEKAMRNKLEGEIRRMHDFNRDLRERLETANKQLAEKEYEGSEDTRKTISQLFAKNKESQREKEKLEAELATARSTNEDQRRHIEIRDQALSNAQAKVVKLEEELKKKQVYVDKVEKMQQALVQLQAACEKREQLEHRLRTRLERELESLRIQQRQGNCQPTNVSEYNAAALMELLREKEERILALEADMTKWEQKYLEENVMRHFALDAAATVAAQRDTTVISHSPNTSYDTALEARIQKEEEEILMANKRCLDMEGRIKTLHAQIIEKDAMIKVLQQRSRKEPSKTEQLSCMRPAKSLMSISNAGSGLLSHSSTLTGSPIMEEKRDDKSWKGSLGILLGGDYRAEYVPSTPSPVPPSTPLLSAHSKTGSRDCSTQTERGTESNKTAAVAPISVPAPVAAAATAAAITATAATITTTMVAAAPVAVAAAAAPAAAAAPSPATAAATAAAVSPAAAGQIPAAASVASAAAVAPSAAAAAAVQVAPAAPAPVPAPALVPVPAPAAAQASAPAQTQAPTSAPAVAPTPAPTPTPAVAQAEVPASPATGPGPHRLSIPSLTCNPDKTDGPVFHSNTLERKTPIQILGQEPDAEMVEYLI
UniProt Q4VCS5, 410-654: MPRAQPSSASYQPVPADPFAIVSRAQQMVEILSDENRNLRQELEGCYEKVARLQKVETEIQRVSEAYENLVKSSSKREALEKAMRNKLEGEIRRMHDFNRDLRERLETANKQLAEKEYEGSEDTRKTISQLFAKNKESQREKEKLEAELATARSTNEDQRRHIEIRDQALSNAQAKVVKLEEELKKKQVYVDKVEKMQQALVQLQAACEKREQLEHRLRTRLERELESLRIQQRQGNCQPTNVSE
UniProt Q4VCS5, whole entry: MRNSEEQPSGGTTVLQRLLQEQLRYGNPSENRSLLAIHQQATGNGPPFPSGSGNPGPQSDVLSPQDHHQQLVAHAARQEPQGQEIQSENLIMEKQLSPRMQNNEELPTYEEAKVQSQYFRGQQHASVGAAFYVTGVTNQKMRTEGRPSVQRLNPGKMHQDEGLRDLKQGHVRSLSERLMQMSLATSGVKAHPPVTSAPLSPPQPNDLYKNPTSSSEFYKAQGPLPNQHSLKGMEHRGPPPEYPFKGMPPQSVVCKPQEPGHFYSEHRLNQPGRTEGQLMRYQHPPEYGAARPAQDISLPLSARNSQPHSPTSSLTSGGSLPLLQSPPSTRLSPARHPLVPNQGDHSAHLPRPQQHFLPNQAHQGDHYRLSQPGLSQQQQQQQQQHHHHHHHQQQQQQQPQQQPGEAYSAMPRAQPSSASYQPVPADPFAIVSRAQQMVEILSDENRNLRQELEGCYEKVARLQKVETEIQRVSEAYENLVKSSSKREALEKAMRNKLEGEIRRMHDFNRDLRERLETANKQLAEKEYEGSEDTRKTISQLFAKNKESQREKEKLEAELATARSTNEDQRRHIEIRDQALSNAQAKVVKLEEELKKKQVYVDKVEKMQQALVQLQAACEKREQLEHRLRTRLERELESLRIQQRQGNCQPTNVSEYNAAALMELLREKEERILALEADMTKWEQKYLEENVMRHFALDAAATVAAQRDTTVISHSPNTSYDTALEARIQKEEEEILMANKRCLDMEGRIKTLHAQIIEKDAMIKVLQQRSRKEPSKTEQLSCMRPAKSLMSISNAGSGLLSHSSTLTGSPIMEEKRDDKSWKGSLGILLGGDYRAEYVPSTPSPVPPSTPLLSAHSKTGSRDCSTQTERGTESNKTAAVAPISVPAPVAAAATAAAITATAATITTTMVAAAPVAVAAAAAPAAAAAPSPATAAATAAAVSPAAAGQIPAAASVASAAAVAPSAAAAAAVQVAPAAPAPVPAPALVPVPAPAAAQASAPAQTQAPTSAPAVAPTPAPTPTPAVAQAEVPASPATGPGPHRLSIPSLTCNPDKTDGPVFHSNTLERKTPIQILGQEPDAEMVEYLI
UniProt Q4VCS5, 444-654: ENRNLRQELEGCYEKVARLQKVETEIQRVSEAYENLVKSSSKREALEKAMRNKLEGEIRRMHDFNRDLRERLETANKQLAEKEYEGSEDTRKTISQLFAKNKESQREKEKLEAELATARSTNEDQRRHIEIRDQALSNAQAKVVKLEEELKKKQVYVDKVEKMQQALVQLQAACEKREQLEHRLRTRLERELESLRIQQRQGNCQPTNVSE
UniProt Q7KZI7, whole entry: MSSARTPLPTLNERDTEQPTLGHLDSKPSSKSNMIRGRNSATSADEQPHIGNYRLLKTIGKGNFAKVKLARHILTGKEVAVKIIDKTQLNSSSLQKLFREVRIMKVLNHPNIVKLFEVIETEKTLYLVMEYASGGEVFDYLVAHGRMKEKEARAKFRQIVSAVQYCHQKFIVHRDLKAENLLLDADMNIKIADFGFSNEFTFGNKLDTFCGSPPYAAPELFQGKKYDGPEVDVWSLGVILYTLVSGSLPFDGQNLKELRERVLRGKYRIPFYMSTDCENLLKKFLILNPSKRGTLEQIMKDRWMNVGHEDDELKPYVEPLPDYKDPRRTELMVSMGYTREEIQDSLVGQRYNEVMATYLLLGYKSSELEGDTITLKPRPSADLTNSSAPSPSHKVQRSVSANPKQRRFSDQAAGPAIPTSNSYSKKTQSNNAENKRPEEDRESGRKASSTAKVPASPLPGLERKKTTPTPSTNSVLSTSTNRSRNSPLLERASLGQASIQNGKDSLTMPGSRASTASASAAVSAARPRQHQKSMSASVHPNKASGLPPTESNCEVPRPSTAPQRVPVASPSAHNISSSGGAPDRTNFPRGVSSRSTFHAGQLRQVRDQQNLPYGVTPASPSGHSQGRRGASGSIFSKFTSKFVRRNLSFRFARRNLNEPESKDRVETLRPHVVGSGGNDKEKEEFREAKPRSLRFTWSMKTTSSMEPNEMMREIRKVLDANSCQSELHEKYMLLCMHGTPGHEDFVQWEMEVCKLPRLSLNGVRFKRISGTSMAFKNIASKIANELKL

What was measured:
Assay in all cases: co-IP
GFP-KIF13B = GFP-KIF13B (UniProt Q9NQT8)
GFP-Tail 11 = GFP-Tail 11 (UniProt Q9NQT8)
FLAG-Ap80 [1] = target: FLAG-Ap80 (UniProt Q4VCS5)
FLAG-Ap80-NB = FLAG-Ap80-NB (UniProt Q4VCS5)
FLAG-Ap130 [2] = target: FLAG-Ap130 (UniProt Q4VCS5)
FLAG-Ap80-B = FLAG-Ap80-B (UniProt Q4VCS5)
FLAG-Ap80 [3] = target: FLAG-Ap80 (UniProt Q4VCS5); remark: listed apart in the source
FLAG-Ap130 [4] = target: FLAG-Ap130 (UniProt Q4VCS5); remark: listed apart in the source

FLAG-Ap80 (from UniProt Q4VCS5-2 1-675)
binding (GFP-KIF13B): binds

FLAG-Ap80-NB (from UniProt Q4VCS5-2 1-245) (domain or fragment)
binding (GFP-Tail 11): binds

GFP-MARK2 (from UniProt Q7KZI7 1-788)
binding (FLAG-Ap80 [1]): no binding

GFP-Tail 11 (from UniProt Q9NQT8 561-1500) (domain or fragment)
binding (FLAG-Ap80-NB): binds

KIF13B-HA (from UniProt Q9NQT8 1-1826)
binding (FLAG-Ap130 [2]): no binding | binding (FLAG-Ap80 [1]): binds

KIF13B-Δmotor-HA (from UniProt Q9NQT8 393-1826) (domain or fragment)
binding (FLAG-Ap80-NB): binds | binding (FLAG-Ap80-B): no binding | binding (FLAG-Ap80 [1]): binds

B1: HA-PALS1 (protein, UniProt Q8N3R9 1-675)
chain: MTTSHMNGHVTEESDSEVKNVDLASPEEHQKHREMAVDCPGDLGTRMMPIRRSAQLERIRQQQEDMRRRREEEGKKQELDLNSSMRLKKLAQIPPKTGIDNPMFDTEEGIVLESPHYAVKILEIEDLFSSLKHIQHTLVDSQSQEDISLLLQLVQNKDFQNAFKIHNAITVHMNKASPPFPLISNAQDLAQEVQTVLKPVHHKEGQELTALLNTPHIQALLLAHDKVAEQEMQLEPITDERVYESIGQYGGETVKIVRIEKARDIPLGATVRNEMDSVIISRIVKGGAAEKSGLLHEGDEVLEINGIEIRGKDVNEVFDLLSDMHGTLTFVLIPSQQIKPPPAKETVIHVKAHFDYDPSDDPYVPCRELGLSFQKGDILHVISQEDPNWWQAYREGDEDNQPLAGLVPGKSFQQQREAMKQTIEEDKEPEKSGKLWCAKKNKKKRKKVLYNANKNDDYDNEEILTYEEMSLYHQPANRKRPIILIGPQNCGQNELRQRLMNKEKDRFASAVPHTTRSRRDQEVAGRDYHFVSRQAFEADIAAGKFIEHGEFEKNLYGTSIDSVRQVINSGKICLLSLRTQSLKTLRNSDLKPYIIFIAPPSQERLRALLAKEGKNPKPEELREIIEKTREMEQNNGHYFDTAIVNSDLDKAYQELLRLINKLDTEPQWVPSTWLR
binding (FLAG-Ap80 [3]): binds

B2: KIF13B-Δmotor-HA (domain or fragment, UniProt Q9NQT8 393-1826)
chain: LKDRLEESEKLIQEMTVTWEEKLRKTEEIAQERQKQLESLGISLQSSGIKVGDDKCFLVNLNADPALNELLVYYLKEHTLIGSANSQDIQLCGMGILPEHCIIDITSEGQVMLTPQKNTRTFVNGSSVSSPIQLHHGDRILWGNNHFFRLNLPKKKKKAEREDEDQDPSMKNENSSEQLDVDGDSSSEVSSEVNFNYEYAQMEVTMKALGSNDPMQSILNSLEQQHEEEKRSALERQRLMYEHELEQLRRRLSPEKQNCRSMDRFSFHSPSAQQRLRQWAEEREATLNNSLMRLREQIVKANLLVREANYIAEELDKRTEYKVTLQIPASSLDANRKRGSLLSEPAIQVRRKGKGKQIWSLEKLDNRLLDMRDLYQEWKECEEDNPVIRSYFKRADPFYDEQENHSLIGVANVFLESLFYDVKLQYAVPIINQKGEVAGRLHVEVMRLSGDVGERIAGGDEVAEVSFEKETQENKLVCMVKILQATGLPQHLSHFVFCKYSFWDQQEPVIVAPEVDTSSSSVSKEPHCMVVFDHCNEFSVNITEDFIEHLSEGALAIEVYGHKINDPRKNPALWDLGIIQAKTRSLRDRWSEVTRKLEFWVQILEQNENGEYCPVEVISAKDVPTGGIFQLRQGQSRRVQVEVKSVQESGTLPLMEECILSVGIGCVKVRPLRAPRTHETFHEEEEDMDSYQDRDLERLRRKWLNALTKRQEYLDQQLQKLVSKRDKTEDDADREAQLLEMRLTLTEERNAVMVPSAGSGIPGAPAEWTPVPGMETHIPVIFLDLNADDFSSQDNLDDPEAGGWDATLTGEEEEEFFELQIVKQHDGEVKAEASWDSAVHGCPQLSRGTPVDERLFLIVRVTVQLSHPADMQLVLRKRICVNVHGRQGFAQSLLKKMSHRSSIPGCGVTFEIVSNIPEDAQGVEEREALARMAANVENPASADSEAYIEKYLRSVLAVENLLTLDRLRQEVAVKEQLTGKGKLSRRSISSPNVNRLSGSRQDLIPSYSLGSNKGRWESQQDVSQTTVSRGIAPAPALSVSPQNNHSPDPGLSNLAASYLNPVKSFVPQMPKLLKSLFPVRDEKRGKRPSPLAHQPVPRIMVQSASPDIRVTRMEEAQPEMGPDVLVQTMGAPALKICDKPAKVPSPPPVIAVTAVTPAPEAQDGPPSPLSEASSGYFSHSVSTATLSDALGPGLDAAAPPGSMPTAPEAEPEAPISHPPPPTAVPAEEPPGPQQLVSPGRERPDLEAPAPGSPFRVRRVRASELRSFSRMLAGDPGCSPGAEGNAPAPGAGGQALASDSEEADEVPEWLREGEFVTVGAHKTGVVRYVGPADFQEGTWVGVELDLPSGKNDGSIGGKQYFRCNPGYGLLVRPSRVRRATGPVRRRSTGLRLGAPEARRSATLSGSATNLASLTAALAKADRSHKNPENRKSWAS
binding (FLAG-Ap130 [4]): no binding
